Experiment [1] addresses T1, TDRD9 (rat (endogenous in 19dpc embryo testes)) (UniProt Q3MHU3).
T1 sequence: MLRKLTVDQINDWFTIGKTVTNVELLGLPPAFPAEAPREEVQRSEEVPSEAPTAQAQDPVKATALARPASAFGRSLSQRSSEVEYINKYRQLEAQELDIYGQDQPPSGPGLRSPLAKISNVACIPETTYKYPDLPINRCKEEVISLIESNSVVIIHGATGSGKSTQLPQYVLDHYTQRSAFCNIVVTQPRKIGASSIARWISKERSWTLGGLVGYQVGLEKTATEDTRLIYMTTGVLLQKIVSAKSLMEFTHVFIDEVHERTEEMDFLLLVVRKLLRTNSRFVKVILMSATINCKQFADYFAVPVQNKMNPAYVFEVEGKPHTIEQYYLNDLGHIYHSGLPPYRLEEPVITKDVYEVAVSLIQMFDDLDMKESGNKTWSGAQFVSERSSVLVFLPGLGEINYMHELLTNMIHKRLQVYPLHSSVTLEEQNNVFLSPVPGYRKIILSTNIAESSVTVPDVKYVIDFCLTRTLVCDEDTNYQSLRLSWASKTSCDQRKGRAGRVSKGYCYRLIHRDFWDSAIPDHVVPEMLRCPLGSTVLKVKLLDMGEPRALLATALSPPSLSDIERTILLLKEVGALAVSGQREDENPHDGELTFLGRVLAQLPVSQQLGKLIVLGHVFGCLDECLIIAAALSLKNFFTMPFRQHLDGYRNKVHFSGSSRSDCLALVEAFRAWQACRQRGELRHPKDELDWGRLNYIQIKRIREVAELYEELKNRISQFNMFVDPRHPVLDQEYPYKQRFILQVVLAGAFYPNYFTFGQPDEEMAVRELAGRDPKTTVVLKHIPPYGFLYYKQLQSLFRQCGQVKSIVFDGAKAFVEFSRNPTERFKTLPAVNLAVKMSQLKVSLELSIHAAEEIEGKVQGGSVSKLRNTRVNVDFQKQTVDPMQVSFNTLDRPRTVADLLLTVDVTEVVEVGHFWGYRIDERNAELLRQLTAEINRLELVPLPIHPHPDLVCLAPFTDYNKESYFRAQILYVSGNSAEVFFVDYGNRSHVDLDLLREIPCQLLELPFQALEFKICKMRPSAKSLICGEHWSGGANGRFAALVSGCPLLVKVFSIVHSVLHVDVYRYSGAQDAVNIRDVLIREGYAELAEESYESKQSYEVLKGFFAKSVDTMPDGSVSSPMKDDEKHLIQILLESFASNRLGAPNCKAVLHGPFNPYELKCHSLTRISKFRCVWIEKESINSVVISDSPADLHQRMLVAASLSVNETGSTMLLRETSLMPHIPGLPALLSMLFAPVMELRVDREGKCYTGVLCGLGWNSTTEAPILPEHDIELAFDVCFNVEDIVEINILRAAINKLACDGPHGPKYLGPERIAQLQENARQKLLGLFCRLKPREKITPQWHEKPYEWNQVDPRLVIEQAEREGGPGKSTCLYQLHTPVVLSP
The experiment in a line: co-IP; Pierce Co-Immunoprecipitation Kit; extract of 30 testes of 19dpc rat embryos incubated overnight at 4°C in spin columns baited with anti-DAZL or anti-TDRD9 antibody; elution product analysed by Western blot; bait not eluted from the column; n = 3.

Experiment [2] concerns the target DAZL (rat (endogenous in 19dpc embryo testes)). The experiment is described as above.

Results are given in words; binding and its absence hold for the method and conditions named. In cells and extracts the contact can be indirect. For part of these data: Binding can be weak; no strength is given.

Regarding “MAEL (rat (endogenous in 19dpc embryo testes))”, the binding entry in experiment [1] is listed as “no binding”.

B1: TDRD9 (protein, UniProt Q3MHU3 1-1384)
chain: MLRKLTVDQINDWFTIGKTVTNVELLGLPPAFPAEAPREEVQRSEEVPSEAPTAQAQDPVKATALARPASAFGRSLSQRSSEVEYINKYRQLEAQELDIYGQDQPPSGPGLRSPLAKISNVACIPETTYKYPDLPINRCKEEVISLIESNSVVIIHGATGSGKSTQLPQYVLDHYTQRSAFCNIVVTQPRKIGASSIARWISKERSWTLGGLVGYQVGLEKTATEDTRLIYMTTGVLLQKIVSAKSLMEFTHVFIDEVHERTEEMDFLLLVVRKLLRTNSRFVKVILMSATINCKQFADYFAVPVQNKMNPAYVFEVEGKPHTIEQYYLNDLGHIYHSGLPPYRLEEPVITKDVYEVAVSLIQMFDDLDMKESGNKTWSGAQFVSERSSVLVFLPGLGEINYMHELLTNMIHKRLQVYPLHSSVTLEEQNNVFLSPVPGYRKIILSTNIAESSVTVPDVKYVIDFCLTRTLVCDEDTNYQSLRLSWASKTSCDQRKGRAGRVSKGYCYRLIHRDFWDSAIPDHVVPEMLRCPLGSTVLKVKLLDMGEPRALLATALSPPSLSDIERTILLLKEVGALAVSGQREDENPHDGELTFLGRVLAQLPVSQQLGKLIVLGHVFGCLDECLIIAAALSLKNFFTMPFRQHLDGYRNKVHFSGSSRSDCLALVEAFRAWQACRQRGELRHPKDELDWGRLNYIQIKRIREVAELYEELKNRISQFNMFVDPRHPVLDQEYPYKQRFILQVVLAGAFYPNYFTFGQPDEEMAVRELAGRDPKTTVVLKHIPPYGFLYYKQLQSLFRQCGQVKSIVFDGAKAFVEFSRNPTERFKTLPAVNLAVKMSQLKVSLELSIHAAEEIEGKVQGGSVSKLRNTRVNVDFQKQTVDPMQVSFNTLDRPRTVADLLLTVDVTEVVEVGHFWGYRIDERNAELLRQLTAEINRLELVPLPIHPHPDLVCLAPFTDYNKESYFRAQILYVSGNSAEVFFVDYGNRSHVDLDLLREIPCQLLELPFQALEFKICKMRPSAKSLICGEHWSGGANGRFAALVSGCPLLVKVFSIVHSVLHVDVYRYSGAQDAVNIRDVLIREGYAELAEESYESKQSYEVLKGFFAKSVDTMPDGSVSSPMKDDEKHLIQILLESFASNRLGAPNCKAVLHGPFNPYELKCHSLTRISKFRCVWIEKESINSVVISDSPADLHQRMLVAASLSVNETGSTMLLRETSLMPHIPGLPALLSMLFAPVMELRVDREGKCYTGVLCGLGWNSTTEAPILPEHDIELAFDVCFNVEDIVEINILRAAINKLACDGPHGPKYLGPERIAQLQENARQKLLGLFCRLKPREKITPQWHEKPYEWNQVDPRLVIEQAEREGGPGKSTCLYQLHTPVVLSP
Consider B1, for which the binding result in experiment [2] was “no binding”.

B2: PIWIL4 (protein, UniProt Q4G033 1-848)
chain: MSGRARVRARGITTGHSAREVERAPRDLMVTSVSPGDNEASSRTSVISQPHELGVSSGDGRRTLVEKRGNGRQDFVDLGVCTREKLTHVKDSKTGSSGIPVQLATNLFHLDLPQDWQLYQYHVTYSPDLASRRLRTALLYNHSILSDKAKAFDGTSLFLSEKLDHKVTELTSETQRGETVKITLTLTSELFPNSPMCIQFFNVIFRKIFKKLSMYQIGRNYYKPSEPVEIPQYKLSLWPGFAISVSRFESKLLVNADVNYKVLRNETVLEFMTDLCLRTDMSCFTETCHKQLVGLIVLTRYNNKTYRIDDIDWSVKPTHAFQKRDGSETTYVDYYKQQYDITLSDLNQPVLVSLLKRRRNDNSEPQMVHLIPELCFLTGLTSQATSDFRLMKAVAEETRLSPMGRQQQLARLADDIQRNQVTRFELETWGLHFGSQLSLTGRVVPSEKILLQDHTCQPAFAADWSKDMRSCKVLSSEPLNTWLIVCCSRAEHLIESFLSCLRRVGGSTGFSVGHPKIIKVDENPAAFLRAIQLHVNPDVQLVMCILPSNQKNYYDSIKRYLSSDCPVPSQCVLTRTLNKQGMMLSVATKIAMQMTCKLGGELWAVEIPLKSLMVVGIDICRDALSKDVAVVGFVASINSRITRWFSRCVLQRTAADIADCLKVCMTGALNKWYKHNHDLPARIIAYRDGVGNGQLKAVLEYEVPQLLSSVTECGSDARSCRLSVVVVRKRCLLRLFAESGHTLQNPPLGTVVDSEATRPEWYDFYLTSQTANRGTVSPTYYNVIYDDNALKPDHMQRLTFKLCHLYYNWQGVISVPAPCQYAHKLTFLVAQSIHKEPSLELANKLFYL
For B2, the binding result in experiment [2] is “binds”.

For the origin of these results see paper PMC6557511.
